The supplement of paper PMC8728848
The other results are listed elsewhere or left out.

Key:
Assay in all cases: glycan array binding signal (z-score within array); higher = stronger binding
Conditions in all cases: glycan notation: IUPAC condensed, linker removed
[1] = target: Neu5Ac(a2-6)Gal(b1-3)GlcNAc(b1-3)[Gal(b1-4)GlcNAc(b1-6)]Gal(b1-4)Glc
Summary of the method: (§1)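 The binding signal is a Z-score computed within each array. Data were drawn from 3228 arrays in the Consortium for Functional Glycomics database, restricted to those with a known protein sequence. Scores were averaged over arrays of the same protein sequence at different concentrations or buffers, and over linkers, and negative values can be taken as non-binding.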

Neu5Ac(a2-6)Gal(b1-4)Glc = target: Neu5Ac(a2-6)Gal(b1-4)Glc
Summary of the method: as §1

[2] = target: Neu5Ac(a2-6)Gal(b1-4)GlcNAc
Summary of the method: as §1

[3] = target: Neu5Ac(a2-6)Gal(b1-4)GlcNAc(b1-2)Man
Summary of the method: as §1

[4] = target: Neu5Ac(a2-6)Gal(b1-4)GlcNAc(b1-2)Man(a1-3)Man(b1-4)GlcNAc(b1-4)GlcNAc
Summary of the method: as §1

[5] = target: Neu5Ac(a2-6)Gal(b1-4)GlcNAc(b1-2)Man(a1-3)[Gal(b1-4)GlcNAc(b1-2)Man(a1-6)]Man(b1-4)GlcNAc(b1-4)GlcNAc
Summary of the method: as §1

[6] = target: Neu5Ac(a2-6)Gal(b1-4)GlcNAc(b1-2)Man(a1-3)[GlcNAc(b1-2)Man(a1-6)]Man(b1-4)GlcNAc(b1-4)GlcNAc
Summary of the method: as §1

[7] = target: Neu5Ac(a2-6)Gal(b1-4)GlcNAc(b1-2)Man(a1-3)[GlcNAc(b1-4)][Neu5Ac(a2-6)Gal(b1-4)GlcNAc(b1-2)Man(a1-6)]Man(b1-4)GlcNAc(b1-4)GlcNAc
Summary of the method: as §1

[8] = target: Neu5Ac(a2-6)Gal(b1-4)GlcNAc(b1-2)Man(a1-3)[Man(a1-6)]Man(b1-4)GlcNAc(b1-4)GlcNAc
Summary of the method: as §1

[9] = target: Neu5Ac(a2-6)Gal(b1-4)GlcNAc(b1-2)Man(a1-3)[Neu5Ac(a2-3)Gal(b1-4)GlcNAc(b1-2)Man(a1-6)]Man(b1-4)GlcNAc(b1-4)GlcNAc
Summary of the method: as §1

[10] = target: Neu5Ac(a2-6)Gal(b1-4)GlcNAc(b1-2)Man(a1-3)[Neu5Ac(a2-6)Gal(b1-4)GlcNAc(b1-2)Man(a1-6)]Man(b1-4)GlcNAc(b1-4)GlcNAc
Summary of the method: as §1

[11] = target: Neu5Ac(a2-6)Gal(b1-4)GlcNAc(b1-2)Man(a1-3)[Neu5Ac(a2-6)Gal(b1-4)GlcNAc(b1-2)Man(a1-6)]Man(b1-4)GlcNAc(b1-4)[Fuc(a1-6)]GlcNAc
Summary of the method: as §1

[12] = target: Neu5Ac(a2-6)Gal(b1-4)GlcNAc(b1-2)Man(a1-6)Man(b1-4)GlcNAc(b1-4)GlcNAc
Summary of the method: as §1

[13] = target: Neu5Ac(a2-6)Gal(b1-4)GlcNAc(b1-2)Man(a1-6)[Gal(b1-4)GlcNAc(b1-2)Man(a1-3)]Man(b1-4)GlcNAc(b1-4)GlcNAc
Summary of the method: as §1

[14] = target: Neu5Ac(a2-6)Gal(b1-4)GlcNAc(b1-2)Man(a1-6)[GlcNAc(b1-2)Man(a1-3)]Man(b1-4)GlcNAc(b1-4)GlcNAc
Summary of the method: as §1

[15] = target: Neu5Ac(a2-6)Gal(b1-4)GlcNAc(b1-2)Man(a1-6)[Man(a1-3)]Man(b1-4)GlcNAc(b1-4)GlcNAc
Summary of the method: as §1

[16] = target: Neu5Ac(a2-6)Gal(b1-4)GlcNAc(b1-2)[Neu5Ac(a2-6)Gal(b1-4)GlcNAc(b1-4)]Man(a1-3)[GlcNAc(b1-4)][Neu5Ac(a2-6)Gal(b1-4)GlcNAc(b1-2)[Neu5Ac(a2-6)Gal(b1-4)GlcNAc(b1-6)]Man(a1-6)]Man(b1-4)GlcNAc(b1-4)GlcNAc
Summary of the method: as §1

[17] = target: Neu5Ac(a2-6)Gal(b1-4)GlcNAc(b1-2)[Neu5Ac(a2-6)Gal(b1-4)GlcNAc(b1-4)]Man(a1-3)[GlcNAc(b1-4)][Neu5Ac(a2-6)Gal(b1-4)GlcNAc(b1-4)Man(a1-6)]Man(b1-4)GlcNAc(b1-4)GlcNAc
Summary of the method: as §1

[18] = target: Neu5Ac(a2-6)Gal(b1-4)GlcNAc(b1-2)[Neu5Ac(a2-6)Gal(b1-4)GlcNAc(b1-6)]Man(a1-6)[Neu5Ac(a2-6)Gal(b1-4)GlcNAc(b1-2)Man(a1-3)][GlcNAc(b1-4)]Man(b1-4)GlcNAc(b1-4)GlcNAc
Summary of the method: as §1

[19] = target: Neu5Ac(a2-6)Gal(b1-4)GlcNAc(b1-3)Gal(b1-3)GlcNAc
Summary of the method: as §1

[20] = target: Neu5Ac(a2-6)Gal(b1-4)GlcNAc(b1-3)Gal(b1-4)GlcNAc
Summary of the method: as §1

[21] = target: Neu5Ac(a2-6)Gal(b1-4)GlcNAc(b1-3)Gal(b1-4)GlcNAc(b1-2)Man(a1-3)[Neu5Ac(a2-6)Gal(b1-4)GlcNAc(b1-3)Gal(b1-4)GlcNAc(b1-2)Man(a1-6)]GalNAc
Summary of the method: as §1

[22] = target: Neu5Ac(a2-6)Gal(b1-4)GlcNAc(b1-3)Gal(b1-4)GlcNAc(b1-3)Gal(b1-4)GlcNAc
Summary of the method: as §1

[23] = target: Neu5Ac(a2-6)Gal(b1-4)GlcNAc(b1-3)Gal(b1-4)GlcNAc(b1-3)Gal(b1-4)GlcNAc(b1-2)Man(a1-3)[Neu5Ac(a2-6)Gal(b1-4)GlcNAc(b1-3)Gal(b1-4)GlcNAc(b1-3)Gal(b1-4)GlcNAc(b1-2)Man(a1-6)]GalNAc
Summary of the method: as §1

[24] = target: Neu5Ac(a2-6)Gal(b1-4)GlcNAc(b1-3)Gal(b1-4)GlcNAc(b1-3)GalNAc
Summary of the method: as §1

[25] = target: Neu5Ac(a2-6)Gal(b1-4)GlcNAc(b1-3)Gal(b1-4)GlcNAc(b1-3)[Neu5Ac(a2-6)Gal(b1-4)GlcNAc(b1-3)Gal(b1-4)GlcNAc(b1-6)]GalNAc
Summary of the method: as §1

[26] = target: Neu5Ac(a2-6)Gal(b1-4)GlcNAc(b1-3)Gal(b1-4)GlcNAc(b1-6)[Gal(b1-3)]GalNAc
Summary of the method: as §1

[27] = target: Neu5Ac(a2-6)Gal(b1-4)GlcNAc(b1-3)Gal(b1-4)[Fuc(a1-3)]GlcNAc(b1-3)Gal(b1-4)[Fuc(a1-3)]GlcNAc
Summary of the method: as §1

[28] = target: Neu5Ac(a2-6)Gal(b1-4)GlcNAc(b1-3)GalNAc
Summary of the method: as §1

[29] = target: Neu5Ac(a2-6)Gal(b1-4)GlcNAc(b1-3)[Neu5Ac(a2-6)Gal(b1-4)GlcNAc(b1-6)]GalNAc
Summary of the method: as §1

[30] = target: Neu5Ac(a2-6)Gal(b1-4)GlcNAc(b1-6)GalNAc
Summary of the method: as §1

[31] = target: Neu5Ac(a2-6)Gal(b1-4)GlcNAc(b1-6)[Gal(b1-3)GlcNAc(b1-3)]Gal(b1-4)Glc
Summary of the method: as §1

[32] = target: Neu5Ac(a2-6)Gal(b1-4)GlcNAc(b1-6)[Gal(b1-3)]GalNAc
Summary of the method: as §1

[33] = target: Neu5Ac(a2-6)Gal(b1-4)GlcNAc6S
Summary of the method: as §1

Neu5Ac(a2-6)GalNAc = target: Neu5Ac(a2-6)GalNAc
Summary of the method: as §1

[34] = target: Neu5Ac(a2-6)GalNAc(b1-4)GlcNAc
Summary of the method: as §1

[35] = target: Neu5Ac(a2-6)GalNAc(b1-4)GlcNAc6S
Summary of the method: as §1

[36] = target: Neu5Ac(a2-6)GlcNAc(b1-4)GlcNAc
Summary of the method: as §1

B1: Thrombomodulin Lectin (Mus musculus) (protein)
chain: LSALAKLQPTGSQCVEHECFALFQGPATFLDASQACQRLQGHLMTVRSSVAADVISLLLSQSSMDLGPWIGLQLPQGCDDPVHLGPLRGFQWVTGDNHTSYSRWARPNDQTAPLCGPLCVTVSTATEAAPGEPAWEEKPCETETQGFLCEFYFTASCRVDPIPVREDTKEEEGAGEPPVSPTPGSPTGPPSARPVLDEPRVPITQNPCPPLKECPPCAAPDLEGGPSVFIFPPKIKDVLMISLSPMVTCVVVDVSEDDPDVQISWFVNNVEVHTAQTQTHREDYNSTLRVVSALPIQHQDWMSGKAFACAVNNRALPSPIEKTISKPRGPVRAPQVYVLPPPAEEMTKKEFSLTCMITGFLPAEIAVDWTSNGRTEQNYKNTATVLDSDGSYFMYSKLRVQKSTWERGSLFACSVVHEGLHNHLTTKTISRSLGK
- glycan array binding signal (z-score) [1]: 0.323
- glycan array binding signal (z-score) (Neu5Ac(a2-6)Gal(b1-4)Glc): 0.211
- glycan array binding signal (z-score) [2]: -0.75
- glycan array binding signal (z-score) [3]: 0.384
- glycan array binding signal (z-score) [4]: 0.672
- glycan array binding signal (z-score) [5]: 1.03
- glycan array binding signal (z-score) [6]: -0.508
- glycan array binding signal (z-score) [7]: -1.11
- glycan array binding signal (z-score) [8]: 2.04
- glycan array binding signal (z-score) [9]: -0.553
- glycan array binding signal (z-score) [10]: -1.07
- glycan array binding signal (z-score) [11]: 0.443
- glycan array binding signal (z-score) [12]: -0.215
- glycan array binding signal (z-score) [13]: 0.302
- glycan array binding signal (z-score) [14]: -0.552
- glycan array binding signal (z-score) [15]: -1.33
- glycan array binding signal (z-score) [16]: -0.889
- glycan array binding signal (z-score) [17]: 0.13
- glycan array binding signal (z-score) [18]: 0.307
- glycan array binding signal (z-score) [19]: -1.26
- glycan array binding signal (z-score) [20]: -1.35
- glycan array binding signal (z-score) [21]: 1.35
- glycan array binding signal (z-score) [22]: -0.834
- glycan array binding signal (z-score) [23]: 1.5
- glycan array binding signal (z-score) [24]: -0.528
- glycan array binding signal (z-score) [25]: 0.368
- glycan array binding signal (z-score) [26]: -0.397
- glycan array binding signal (z-score) [27]: -1.06
- glycan array binding signal (z-score) [28]: -0.306
- glycan array binding signal (z-score) [29]: 0.992
- glycan array binding signal (z-score) [30]: 0.784
- glycan array binding signal (z-score) [31]: -0.348
- glycan array binding signal (z-score) [32]: 1.19
- glycan array binding signal (z-score) [33]: -1.62
- glycan array binding signal (z-score) (Neu5Ac(a2-6)GalNAc): -0.194
- glycan array binding signal (z-score) [34]: -1.18
- glycan array binding signal (z-score) [35]: -0.087
- glycan array binding signal (z-score) [36]: 0.971
